{"sequences": {"note": "Sequences of proteins named here, by UniProt entry; tags and fusion partners are left off.", "UniProt Q0JBA9, entry or part of it": "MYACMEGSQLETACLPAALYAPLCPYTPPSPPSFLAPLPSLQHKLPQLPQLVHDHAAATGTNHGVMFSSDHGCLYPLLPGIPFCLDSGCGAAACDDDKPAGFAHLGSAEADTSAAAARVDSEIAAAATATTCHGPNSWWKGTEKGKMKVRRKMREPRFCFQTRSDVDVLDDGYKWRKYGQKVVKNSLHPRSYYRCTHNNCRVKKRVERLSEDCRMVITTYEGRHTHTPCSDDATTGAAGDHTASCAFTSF"}, "source": "paper PMC7819943", "about": "“Rice protein-binding microarrays: a tool to detect cis-acting elements near promoter regions in rice”", "note": "The list shows a part of the results.", "data": [{"target": "OsWRKY34 (Oryza sativa, UniProt Q0JBA9 1-250)", "assay": "protein-binding microarray (RPBM); PBS, 2% BSA, 51.3 ng/ul salmon testes DNA, 50 uM zinc acetate, 200 nM TF, 25 C, 1 h; high values mean tight binding", "settings": "protein: recombinant; tags: N-terminal polyhistidine and DsRed monomer fusion (pET32a); label: CyDye5-dUTP incorporated in the synthesized complementary strand; 3' TTTTT single-stranded linker to array surface; dsDNA, one strand shown", "summary_of_the_method": "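A custom Agilent array was converted to double-stranded form by primer extension with Cy5-dUTP and blocked with 2% BSA. Protein at 200 nM in PBS with 2% BSA, salmon testes DNA and 50 µM zinc acetate was applied for 1 h at 25 °C, followed by washing. The proteins were polyhistidine–DsRed N-terminal fusions of transcription factors, expressed in E. coli BL21-CodonPlus and Ni–NTA-purified. The binding signal is per-feature fluorescence intensity (arbitrary units) from an Axon 4000B scanner.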", "values": [{"sequence": "GCACTCTCTCTCTCCTCGTTGTCCCTCCCGTCCCGTCTCTCGGAGTCACCTAGTGCAG", "binding signal": "8110 fluorescence intensity (a.u.)"}, {"sequence": "TTCTTCCTCGCCGGCCACACACAGTTCATCCAACCACTTGCGGAGTCACCTAGTGCAG", "binding signal": "11600 fluorescence intensity (a.u.)"}, {"sequence": "GTGTGTTTTTCTGTATGTTGGGGTAGCAGCAAGCAGGAGGCGGAGTCACCTAGTGCAG", "binding signal": "8460 fluorescence intensity (a.u.)"}, {"sequence": "TAGTGGTTAGGGGTATCATGGAGAGGAATTTAAATTGGAACGGAGTCACCTAGTGCAG", "binding signal": "8580 fluorescence intensity (a.u.)"}, {"sequence": "GACCGGAATTCTTTTTTCTTATCCTTTATCTTTGCTAAACCGGAGTCACCTAGTGCAG", "binding signal": "13000 fluorescence intensity (a.u.)"}, {"sequence": "CTGTTTTGACAAATTGTTCATCGGTCGCTGCTTCTGTGGACGGAGTCACCTAGTGCAG", "binding signal": "8750 fluorescence intensity (a.u.)"}, {"sequence": "CTCAGCTTCTCCTCTCTCTCTCTCCTCGTACGCGCCAACACGGAGTCACCTAGTGCAG", "binding signal": "8550 fluorescence intensity (a.u.)"}, {"sequence": "CGCTCTCTCTCTCTACACCATAGAGCCGTTCATGTTCTGTCGGAGTCACCTAGTGCAG", "binding signal": "10000 fluorescence intensity (a.u.)"}, {"sequence": "GGGGAGATTTAGGATGTGTTCGGTTGGAGGGATTTTCTAACGGAGTCACCTAGTGCAG", "binding signal": "11100 fluorescence intensity (a.u.)"}, {"sequence": "CATCGTACCAATTTCAACCCAAACTTCTACCTTTGAAAGTCGGAGTCACCTAGTGCAG", "binding signal": "8640 fluorescence intensity (a.u.)"}, {"sequence": "ACCCATTTCATATTATAAGTCATTTGACTTTTTTCTAGTCCGGAGTCACCTAGTGCAG", "binding signal": "12000 fluorescence intensity (a.u.)"}, {"sequence": "AATTATTTGTCTAGTTTCATCGTTAGAATTTATCTTTTCTCGGAGTCACCTAGTGCAG", "binding signal": "10300 fluorescence intensity (a.u.)"}, {"sequence": "AGACGCCTCGCTGTCGACGGGTTTCTCTTGGGTATGGGATCGGAGTCACCTAGTGCAG", "binding signal": "8890 fluorescence intensity (a.u.)"}, {"sequence": "TGTTGCAATTGTGGTATTCTTCCTTCTGGTGGTCGCGTTCCGGAGTCACCTAGTGCAG", "binding signal": "9640 fluorescence intensity (a.u.)"}, {"sequence": "TCACTCTCTTCATCTCATGAGCATCTCACTCACTCATCTCCGGAGTCACCTAGTGCAG", "binding signal": "8710 fluorescence intensity (a.u.)"}, {"sequence": "TTCTCCTGCTACCTGGTTGCTTCTTGTGTTCTTGTGCTACCGGAGTCACCTAGTGCAG", "binding signal": "10000 fluorescence intensity (a.u.)"}, {"sequence": "TTCGGGTTCAATTTCAGGTTCAGTCGCTTGCTTGGTGCTTCGGAGTCACCTAGTGCAG", "binding signal": "8960 fluorescence intensity (a.u.)"}, {"sequence": "CTTCTCTTTCTTGCTCCGTCAATACACCAGCACACAAATCCGGAGTCACCTAGTGCAG", "binding signal": "10600 fluorescence intensity (a.u.)"}, {"sequence": "GACTGATGTACACCGCTGCACCCGCGCCTGCACCCGCGCGCGGAGTCACCTAGTGCAG", "binding signal": "11200 fluorescence intensity (a.u.)"}, {"sequence": "CGCGGGTACGTTTTTCAAATGATTTAACAGTACGTTTTTACGGAGTCACCTAGTGCAG", "binding signal": "9480 fluorescence intensity (a.u.)"}, {"sequence": "TTATCATGGGCACAACTTGCTAGATCTCATCCAATCTTGGCGGAGTCACCTAGTGCAG", "binding signal": "10600 fluorescence intensity (a.u.)"}, {"sequence": "GTTGGAGTTGGAGGAGGTGGTGCCGTGGTGGGGATTGATGCGGAGTCACCTAGTGCAG", "binding signal": "10500 fluorescence intensity (a.u.)"}, {"sequence": "CATCTTTGTGGTTGTGTGGGTGTGTGTGTATATATATACCCGGAGTCACCTAGTGCAG", "binding signal": "8180 fluorescence intensity (a.u.)"}, {"sequence": "TATTCTTCTTCTCTTTGGGCATTGCTTTATATGGTTATTTCGGAGTCACCTAGTGCAG", "binding signal": "8480 fluorescence intensity (a.u.)"}, {"sequence": "AACATTTTTTAAATTTATTCTCACTTTTTCTGATTTTTACCGGAGTCACCTAGTGCAG", "binding signal": "8210 fluorescence intensity (a.u.)"}, {"sequence": "AAACTTCCTCTTGAAATTTCATTCATGTTCCTTACTTACACGGAGTCACCTAGTGCAG", "binding signal": "10100 fluorescence intensity (a.u.)"}, {"sequence": "AGTAATGTCATTGGCCTATCATATTCTGACTATGTTTTATCGGAGTCACCTAGTGCAG", "binding signal": "9290 fluorescence intensity (a.u.)"}, {"sequence": "TGATTTAGCTGATATCGCGTGTTTATTTTCTTCGGAATTTCGGAGTCACCTAGTGCAG", "binding signal": "8390 fluorescence intensity (a.u.)"}, {"sequence": "TCTTTGTTTATGCTTGTCGTTTCCTTGTGTGAGGTCAGCACGGAGTCACCTAGTGCAG", "binding signal": "11600 fluorescence intensity (a.u.)"}, {"sequence": "TCTAGATATCTCTCTCTTTTTCTCTCTAGATCTCTCTTTTCGGAGTCACCTAGTGCAG", "binding signal": "13500 fluorescence intensity (a.u.)"}, {"sequence": "CCTTCTTGTCCTGCTCCCGCGCCGGCTCCGACCGGGTCCTCGGAGTCACCTAGTGCAG", "binding signal": "8600 fluorescence intensity (a.u.)"}, {"sequence": "CTGGTCACCCATTTAGTTGTGTTTTTTTTCTGTTATATTTCGGAGTCACCTAGTGCAG", "binding signal": "9390 fluorescence intensity (a.u.)"}, {"sequence": "CATATATGTAGCCCGCTACTCTTCTCTCTTCTTTTATCTTCGGAGTCACCTAGTGCAG", "binding signal": "8980 fluorescence intensity (a.u.)"}, {"sequence": "CCGCCGCTGTCGTCCTCGTCGTCCCCACCACCACCACCTCCGGAGTCACCTAGTGCAG", "binding signal": "8210 fluorescence intensity (a.u.)"}, {"sequence": "AAGAGAATTGTGAGGGTGCATTGTGGAGGTCATATCCTTACGGAGTCACCTAGTGCAG", "binding signal": "9490 fluorescence intensity (a.u.)"}, {"sequence": "TAATTTTAGGTTTTTTCTCATGTTTATTTTTAAGTATTTGCGGAGTCACCTAGTGCAG", "binding signal": "8860 fluorescence intensity (a.u.)"}, {"sequence": "TCCGTTTCCATCTCGTTCTGCATTTTCGTGGGCTTTGATTCGGAGTCACCTAGTGCAG", "binding signal": "10300 fluorescence intensity (a.u.)"}, {"sequence": "GGAAGGCTGGCTTCCGCGCGACGCGTTCTTCCTTTCCGCGCGGAGTCACCTAGTGCAG", "binding signal": "8470 fluorescence intensity (a.u.)"}, {"sequence": "CCTAGATGTATGTATGCGTTTACAAGGGTGAGTGTGCTTACGGAGTCACCTAGTGCAG", "binding signal": "8670 fluorescence intensity (a.u.)"}, {"sequence": "GCGCTCCGCTACCTGTGCCTCGCCAACGCCGACCTCCTCGCGGAGTCACCTAGTGCAG", "binding signal": "9660 fluorescence intensity (a.u.)"}, {"sequence": "TTGTCATGTGGTTTCGTTGTCCTTGCGGTTCAATCAACGTCGGAGTCACCTAGTGCAG", "binding signal": "10900 fluorescence intensity (a.u.)"}, {"sequence": "AAGCTAGGTAGGAGGTTTTTGTGTGTGTGTGTGTGTGATGCGGAGTCACCTAGTGCAG", "binding signal": "8290 fluorescence intensity (a.u.)"}]}]}
